No constants are given. Whether binding was seen depends on the method and setting. Binding seen in cells or lysates may run through a third protein. These calls come from enrichment with a bait or labelling near it, and not all partners need be listed.

The chains behind the UniProt entries cited, without tags or fusion partners.
UniProt Q8C0Y1: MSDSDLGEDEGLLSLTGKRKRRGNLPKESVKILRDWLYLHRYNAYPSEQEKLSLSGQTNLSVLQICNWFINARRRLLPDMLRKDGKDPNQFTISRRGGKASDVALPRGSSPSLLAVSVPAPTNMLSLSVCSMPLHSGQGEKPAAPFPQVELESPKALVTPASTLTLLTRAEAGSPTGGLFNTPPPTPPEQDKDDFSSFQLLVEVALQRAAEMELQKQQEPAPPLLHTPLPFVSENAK
UniProt O09106: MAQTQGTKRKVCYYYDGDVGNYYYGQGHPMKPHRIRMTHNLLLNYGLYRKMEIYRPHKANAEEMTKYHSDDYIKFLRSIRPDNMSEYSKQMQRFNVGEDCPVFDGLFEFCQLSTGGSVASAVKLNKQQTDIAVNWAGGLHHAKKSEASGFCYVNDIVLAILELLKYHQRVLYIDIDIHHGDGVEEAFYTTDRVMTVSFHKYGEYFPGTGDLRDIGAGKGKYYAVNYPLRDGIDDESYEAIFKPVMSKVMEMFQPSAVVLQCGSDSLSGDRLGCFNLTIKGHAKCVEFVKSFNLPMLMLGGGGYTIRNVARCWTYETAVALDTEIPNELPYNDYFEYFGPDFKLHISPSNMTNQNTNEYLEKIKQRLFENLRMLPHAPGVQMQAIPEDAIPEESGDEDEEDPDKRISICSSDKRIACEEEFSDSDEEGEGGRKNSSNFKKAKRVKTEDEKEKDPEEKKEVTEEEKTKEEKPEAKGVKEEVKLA
UniProt P70288: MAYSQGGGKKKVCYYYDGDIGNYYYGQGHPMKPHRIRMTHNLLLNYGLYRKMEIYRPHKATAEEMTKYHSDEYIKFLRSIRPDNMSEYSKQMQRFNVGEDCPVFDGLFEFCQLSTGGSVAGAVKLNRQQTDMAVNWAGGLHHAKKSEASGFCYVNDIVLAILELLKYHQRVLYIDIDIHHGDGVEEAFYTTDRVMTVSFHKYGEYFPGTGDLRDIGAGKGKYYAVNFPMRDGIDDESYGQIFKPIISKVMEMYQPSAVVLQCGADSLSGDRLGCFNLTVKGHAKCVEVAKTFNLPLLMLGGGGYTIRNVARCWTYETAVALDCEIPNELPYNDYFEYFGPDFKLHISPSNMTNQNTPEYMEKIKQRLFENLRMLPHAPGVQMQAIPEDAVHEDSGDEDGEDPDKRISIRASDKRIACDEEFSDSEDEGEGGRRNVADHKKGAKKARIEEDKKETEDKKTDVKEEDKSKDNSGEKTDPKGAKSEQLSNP
UniProt O54962: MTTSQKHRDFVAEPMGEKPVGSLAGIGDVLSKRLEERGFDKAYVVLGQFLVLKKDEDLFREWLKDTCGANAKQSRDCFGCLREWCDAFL
UniProt P11103: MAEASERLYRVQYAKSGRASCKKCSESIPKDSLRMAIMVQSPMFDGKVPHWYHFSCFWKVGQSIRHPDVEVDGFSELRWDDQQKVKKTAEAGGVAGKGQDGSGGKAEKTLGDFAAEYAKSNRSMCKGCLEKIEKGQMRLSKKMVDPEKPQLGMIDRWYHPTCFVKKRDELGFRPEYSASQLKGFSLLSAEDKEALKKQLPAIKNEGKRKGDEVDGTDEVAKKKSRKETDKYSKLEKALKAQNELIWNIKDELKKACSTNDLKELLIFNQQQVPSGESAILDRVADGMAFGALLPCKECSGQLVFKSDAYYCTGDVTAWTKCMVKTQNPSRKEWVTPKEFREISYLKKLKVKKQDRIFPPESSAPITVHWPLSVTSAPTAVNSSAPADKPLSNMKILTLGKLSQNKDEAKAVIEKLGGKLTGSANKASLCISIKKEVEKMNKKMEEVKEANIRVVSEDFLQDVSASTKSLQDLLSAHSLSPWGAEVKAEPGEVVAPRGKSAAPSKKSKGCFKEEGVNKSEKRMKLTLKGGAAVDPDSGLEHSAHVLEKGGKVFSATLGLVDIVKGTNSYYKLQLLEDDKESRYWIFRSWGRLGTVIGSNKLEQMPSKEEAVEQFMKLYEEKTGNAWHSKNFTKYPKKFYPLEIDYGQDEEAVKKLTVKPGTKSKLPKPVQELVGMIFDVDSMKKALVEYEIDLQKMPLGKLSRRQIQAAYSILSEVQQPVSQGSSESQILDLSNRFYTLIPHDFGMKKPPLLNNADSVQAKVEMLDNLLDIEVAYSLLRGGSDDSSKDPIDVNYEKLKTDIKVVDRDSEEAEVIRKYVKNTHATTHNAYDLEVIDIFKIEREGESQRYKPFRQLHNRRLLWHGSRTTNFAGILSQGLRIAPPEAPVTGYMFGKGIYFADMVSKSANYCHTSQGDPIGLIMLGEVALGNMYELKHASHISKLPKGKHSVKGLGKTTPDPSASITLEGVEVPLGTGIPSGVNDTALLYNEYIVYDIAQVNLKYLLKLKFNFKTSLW
UniProt Q8VEE4: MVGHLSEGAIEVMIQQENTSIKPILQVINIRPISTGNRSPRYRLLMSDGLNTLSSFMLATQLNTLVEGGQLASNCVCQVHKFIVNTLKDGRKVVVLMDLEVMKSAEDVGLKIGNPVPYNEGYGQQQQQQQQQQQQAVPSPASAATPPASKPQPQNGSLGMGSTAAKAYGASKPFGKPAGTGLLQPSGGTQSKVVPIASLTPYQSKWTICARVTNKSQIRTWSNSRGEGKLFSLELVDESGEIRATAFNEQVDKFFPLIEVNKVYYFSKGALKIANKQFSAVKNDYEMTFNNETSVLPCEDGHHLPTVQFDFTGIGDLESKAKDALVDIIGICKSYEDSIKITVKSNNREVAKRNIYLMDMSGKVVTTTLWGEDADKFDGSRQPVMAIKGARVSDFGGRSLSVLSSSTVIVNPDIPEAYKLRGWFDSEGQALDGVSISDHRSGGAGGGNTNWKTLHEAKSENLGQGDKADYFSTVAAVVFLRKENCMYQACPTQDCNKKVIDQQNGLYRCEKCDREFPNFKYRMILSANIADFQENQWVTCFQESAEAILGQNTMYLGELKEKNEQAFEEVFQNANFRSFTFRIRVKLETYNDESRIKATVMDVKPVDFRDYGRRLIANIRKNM
UniProt Q62193: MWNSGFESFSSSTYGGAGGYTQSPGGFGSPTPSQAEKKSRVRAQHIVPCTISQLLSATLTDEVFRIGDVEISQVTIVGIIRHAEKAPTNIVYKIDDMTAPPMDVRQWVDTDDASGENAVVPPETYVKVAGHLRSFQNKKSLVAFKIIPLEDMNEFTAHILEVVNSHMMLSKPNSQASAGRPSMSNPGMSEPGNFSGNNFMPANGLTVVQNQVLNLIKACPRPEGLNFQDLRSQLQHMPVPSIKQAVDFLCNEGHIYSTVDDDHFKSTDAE
UniProt Q9CQ71: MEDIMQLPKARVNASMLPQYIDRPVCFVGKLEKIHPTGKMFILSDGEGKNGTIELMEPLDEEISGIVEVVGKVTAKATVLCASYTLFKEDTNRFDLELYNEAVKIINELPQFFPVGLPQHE

The test concerns the target triple-flag–tagged TGIF2a (transforming growth factor–β–induced homeobox factor 2, isoform a) (UniProt Q8C0Y1). The test is described as follows: affinity purification with mass spectrometry; P19 cells transfected with triple-flag TGIF2a or GFP control, lysed after 48 hours in nondenaturing buffer (20 mM tris-HCl pH 8.0, 137 mM NaCl, 1% NP-40, 2 mM EDTA); anti-FLAG antibody and Protein G Dynabeads, 4°C; hits by LFQ intensity ratio > 3 against the GFP control, two biological replicates.
As for HDAC1 (from UniProt O09106 1-482), the binding result was “binds”.

HDAC2 (from UniProt P70288 1-488): the binding result is “binds”. Then “barrier to autointegration factor 1 (from UniProt O54962 1-89)”, with “binds”; and “poly(ADP-ribose) polymerase 1 (from UniProt P11103 1-1013)”, with “binds”. With “replication protein A 1 (from UniProt Q8VEE4 1-623)” the entry was “binds”. With “replication protein A 2 (from UniProt Q62193 1-270)” the entry was “binds”; with “replication protein A 3 (from UniProt Q9CQ71 1-121)”, “binds”.
